These are yes or no findings as the source states them, for the method shown. In cells and extracts the contact can be indirect. Some entries that bind do so weakly or less than the wild type.
Target: Angiomotin-Like-2 (AmotL2), endogenous in HaCaT human keratinocytes (human (endogenous in HaCaT)) (UniProt Q9Y2J4)
Experiment: co-IP; HaCaT cell lysate, control siRNA; lysis buffer 50 mM Tris-HCl pH 7.6, 150 mM NaCl, 1 mM EDTA, 1% Nonidet P40; precipitated with rabbit antibody against the C-terminal motif of human amotL2, Protein G Sepharose, 4 °C; western blot

Sequences of proteins named here, by UniProt entry; tags and fusion partners are left off.
UniProt Q9Y2J4: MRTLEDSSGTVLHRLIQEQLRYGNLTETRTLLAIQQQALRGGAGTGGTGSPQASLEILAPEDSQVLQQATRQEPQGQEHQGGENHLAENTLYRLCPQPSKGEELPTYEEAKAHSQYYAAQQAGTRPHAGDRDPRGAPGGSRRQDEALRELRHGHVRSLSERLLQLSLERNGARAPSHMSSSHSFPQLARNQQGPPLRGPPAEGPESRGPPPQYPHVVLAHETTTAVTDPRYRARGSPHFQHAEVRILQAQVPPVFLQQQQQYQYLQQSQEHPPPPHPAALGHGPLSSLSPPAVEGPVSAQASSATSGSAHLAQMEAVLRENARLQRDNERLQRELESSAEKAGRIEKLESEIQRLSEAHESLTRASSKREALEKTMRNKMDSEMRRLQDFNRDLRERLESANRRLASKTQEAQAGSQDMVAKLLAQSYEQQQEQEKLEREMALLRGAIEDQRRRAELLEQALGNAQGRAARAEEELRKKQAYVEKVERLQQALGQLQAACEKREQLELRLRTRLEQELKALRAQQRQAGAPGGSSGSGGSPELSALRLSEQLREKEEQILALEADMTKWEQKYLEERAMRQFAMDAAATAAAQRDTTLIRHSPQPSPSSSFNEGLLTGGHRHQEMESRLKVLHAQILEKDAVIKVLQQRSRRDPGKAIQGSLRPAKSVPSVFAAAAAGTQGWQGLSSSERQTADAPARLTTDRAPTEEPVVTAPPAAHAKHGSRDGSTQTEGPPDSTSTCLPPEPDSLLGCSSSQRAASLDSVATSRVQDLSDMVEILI
UniProt Q8TEW0: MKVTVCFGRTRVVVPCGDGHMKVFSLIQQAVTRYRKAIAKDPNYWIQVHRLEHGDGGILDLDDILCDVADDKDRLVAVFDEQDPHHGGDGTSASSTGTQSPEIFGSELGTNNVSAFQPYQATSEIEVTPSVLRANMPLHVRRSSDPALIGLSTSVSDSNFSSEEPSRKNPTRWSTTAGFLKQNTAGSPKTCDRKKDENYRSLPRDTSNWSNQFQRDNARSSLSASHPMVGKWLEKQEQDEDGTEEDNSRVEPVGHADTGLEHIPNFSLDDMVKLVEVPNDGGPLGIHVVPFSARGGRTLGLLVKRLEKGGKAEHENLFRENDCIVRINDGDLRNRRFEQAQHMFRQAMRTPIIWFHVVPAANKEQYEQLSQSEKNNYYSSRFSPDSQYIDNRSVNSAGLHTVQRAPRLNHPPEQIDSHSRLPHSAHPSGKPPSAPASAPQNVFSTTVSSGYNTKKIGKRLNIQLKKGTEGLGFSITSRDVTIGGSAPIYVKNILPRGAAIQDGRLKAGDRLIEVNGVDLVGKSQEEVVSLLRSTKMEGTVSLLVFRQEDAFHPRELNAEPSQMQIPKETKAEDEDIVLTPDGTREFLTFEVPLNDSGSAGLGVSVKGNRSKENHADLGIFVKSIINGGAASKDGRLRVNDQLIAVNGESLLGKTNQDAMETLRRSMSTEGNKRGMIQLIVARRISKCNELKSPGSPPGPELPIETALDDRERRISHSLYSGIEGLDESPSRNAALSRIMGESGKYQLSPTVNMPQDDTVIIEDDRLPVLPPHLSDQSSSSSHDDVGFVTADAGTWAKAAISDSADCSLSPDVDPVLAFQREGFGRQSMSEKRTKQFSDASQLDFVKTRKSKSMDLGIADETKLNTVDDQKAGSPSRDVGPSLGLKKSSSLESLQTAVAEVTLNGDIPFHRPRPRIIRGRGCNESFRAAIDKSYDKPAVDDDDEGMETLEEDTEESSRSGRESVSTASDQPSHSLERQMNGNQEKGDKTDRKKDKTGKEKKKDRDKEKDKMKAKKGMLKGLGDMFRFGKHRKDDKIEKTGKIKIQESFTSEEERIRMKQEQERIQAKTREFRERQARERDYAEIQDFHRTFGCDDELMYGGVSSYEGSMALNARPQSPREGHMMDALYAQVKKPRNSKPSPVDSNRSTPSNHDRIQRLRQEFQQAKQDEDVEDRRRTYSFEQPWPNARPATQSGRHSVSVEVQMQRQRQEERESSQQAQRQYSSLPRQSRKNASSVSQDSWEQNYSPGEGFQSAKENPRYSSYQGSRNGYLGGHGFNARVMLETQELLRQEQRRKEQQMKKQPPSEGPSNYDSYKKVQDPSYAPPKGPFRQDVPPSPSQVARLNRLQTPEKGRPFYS

binding: binds
Substance: Par3, endogenous in HaCaT cells (from UniProt Q8TEW0 1-1356)
